Experimental data taken from PMC10474292.
Results are given in words; binding and its absence hold for the method and conditions named. Binding seen in cells or lysates may run through a third protein. Some binding calls cover weakened binding; strength is not graded here.

By UniProt entry, the sequences of proteins in these tests, tags left out. Where a name states a change or a piece, a line headed by the entry shows the natural chain unless it says otherwise.
UniProt B2RWS6: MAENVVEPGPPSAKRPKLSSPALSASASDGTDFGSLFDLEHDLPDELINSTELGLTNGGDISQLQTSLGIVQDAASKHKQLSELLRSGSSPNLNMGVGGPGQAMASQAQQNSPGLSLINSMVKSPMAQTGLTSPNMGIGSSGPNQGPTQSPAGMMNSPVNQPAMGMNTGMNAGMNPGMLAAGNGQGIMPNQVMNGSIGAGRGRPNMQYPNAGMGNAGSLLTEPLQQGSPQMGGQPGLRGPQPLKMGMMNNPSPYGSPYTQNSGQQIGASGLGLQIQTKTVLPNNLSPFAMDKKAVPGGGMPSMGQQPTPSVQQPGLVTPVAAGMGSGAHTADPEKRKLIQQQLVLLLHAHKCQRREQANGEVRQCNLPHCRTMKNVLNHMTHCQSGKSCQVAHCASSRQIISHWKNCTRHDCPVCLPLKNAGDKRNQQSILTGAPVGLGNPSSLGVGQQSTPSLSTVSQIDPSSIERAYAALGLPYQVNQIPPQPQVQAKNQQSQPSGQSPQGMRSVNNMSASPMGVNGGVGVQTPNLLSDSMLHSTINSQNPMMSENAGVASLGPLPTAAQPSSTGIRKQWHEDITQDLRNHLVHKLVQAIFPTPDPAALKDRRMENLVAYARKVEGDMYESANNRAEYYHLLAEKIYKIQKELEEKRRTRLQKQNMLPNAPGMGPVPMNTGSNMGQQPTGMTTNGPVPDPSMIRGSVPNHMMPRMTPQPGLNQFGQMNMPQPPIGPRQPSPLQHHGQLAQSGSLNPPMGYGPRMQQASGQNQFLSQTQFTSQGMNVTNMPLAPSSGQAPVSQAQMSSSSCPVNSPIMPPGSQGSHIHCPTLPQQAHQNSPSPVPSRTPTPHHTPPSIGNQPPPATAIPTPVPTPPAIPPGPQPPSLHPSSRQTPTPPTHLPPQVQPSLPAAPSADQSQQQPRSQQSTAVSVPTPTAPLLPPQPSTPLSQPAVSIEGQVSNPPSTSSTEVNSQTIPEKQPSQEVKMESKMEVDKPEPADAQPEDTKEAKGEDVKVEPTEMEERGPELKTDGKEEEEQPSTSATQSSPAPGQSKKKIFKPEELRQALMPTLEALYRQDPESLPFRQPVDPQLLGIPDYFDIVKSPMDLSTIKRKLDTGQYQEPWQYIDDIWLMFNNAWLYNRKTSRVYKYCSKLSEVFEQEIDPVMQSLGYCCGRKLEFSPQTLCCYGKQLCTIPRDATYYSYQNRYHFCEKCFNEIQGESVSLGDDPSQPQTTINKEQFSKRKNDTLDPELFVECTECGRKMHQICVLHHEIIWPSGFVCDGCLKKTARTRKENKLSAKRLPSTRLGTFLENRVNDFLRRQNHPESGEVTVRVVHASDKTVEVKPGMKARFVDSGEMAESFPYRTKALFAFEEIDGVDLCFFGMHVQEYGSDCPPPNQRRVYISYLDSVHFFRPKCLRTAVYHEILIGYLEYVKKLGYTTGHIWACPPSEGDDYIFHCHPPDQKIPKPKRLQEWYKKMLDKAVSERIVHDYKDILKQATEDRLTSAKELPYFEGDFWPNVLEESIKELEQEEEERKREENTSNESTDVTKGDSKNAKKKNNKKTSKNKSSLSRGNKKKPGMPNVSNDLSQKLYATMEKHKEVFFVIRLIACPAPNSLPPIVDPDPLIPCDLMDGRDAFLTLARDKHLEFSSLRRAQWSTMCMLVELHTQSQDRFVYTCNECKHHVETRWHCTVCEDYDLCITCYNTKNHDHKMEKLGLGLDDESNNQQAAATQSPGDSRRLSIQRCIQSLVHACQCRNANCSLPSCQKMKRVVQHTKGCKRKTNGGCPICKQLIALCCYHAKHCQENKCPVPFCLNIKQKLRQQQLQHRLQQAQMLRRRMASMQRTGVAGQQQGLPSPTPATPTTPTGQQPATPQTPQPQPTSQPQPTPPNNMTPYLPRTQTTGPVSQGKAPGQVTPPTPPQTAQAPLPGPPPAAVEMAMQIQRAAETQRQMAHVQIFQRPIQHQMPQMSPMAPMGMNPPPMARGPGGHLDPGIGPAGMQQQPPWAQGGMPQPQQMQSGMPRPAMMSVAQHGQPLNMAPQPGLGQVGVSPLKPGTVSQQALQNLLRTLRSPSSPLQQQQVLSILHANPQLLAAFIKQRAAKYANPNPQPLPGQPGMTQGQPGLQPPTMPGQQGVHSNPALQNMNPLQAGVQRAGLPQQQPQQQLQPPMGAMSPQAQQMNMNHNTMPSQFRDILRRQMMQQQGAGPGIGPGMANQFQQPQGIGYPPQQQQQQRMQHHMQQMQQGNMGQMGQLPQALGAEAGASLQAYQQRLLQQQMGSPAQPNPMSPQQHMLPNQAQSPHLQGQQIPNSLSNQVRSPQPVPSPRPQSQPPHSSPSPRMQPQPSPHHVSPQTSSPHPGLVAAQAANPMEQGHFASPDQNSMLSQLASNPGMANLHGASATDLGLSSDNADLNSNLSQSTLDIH
UniProt Q09472: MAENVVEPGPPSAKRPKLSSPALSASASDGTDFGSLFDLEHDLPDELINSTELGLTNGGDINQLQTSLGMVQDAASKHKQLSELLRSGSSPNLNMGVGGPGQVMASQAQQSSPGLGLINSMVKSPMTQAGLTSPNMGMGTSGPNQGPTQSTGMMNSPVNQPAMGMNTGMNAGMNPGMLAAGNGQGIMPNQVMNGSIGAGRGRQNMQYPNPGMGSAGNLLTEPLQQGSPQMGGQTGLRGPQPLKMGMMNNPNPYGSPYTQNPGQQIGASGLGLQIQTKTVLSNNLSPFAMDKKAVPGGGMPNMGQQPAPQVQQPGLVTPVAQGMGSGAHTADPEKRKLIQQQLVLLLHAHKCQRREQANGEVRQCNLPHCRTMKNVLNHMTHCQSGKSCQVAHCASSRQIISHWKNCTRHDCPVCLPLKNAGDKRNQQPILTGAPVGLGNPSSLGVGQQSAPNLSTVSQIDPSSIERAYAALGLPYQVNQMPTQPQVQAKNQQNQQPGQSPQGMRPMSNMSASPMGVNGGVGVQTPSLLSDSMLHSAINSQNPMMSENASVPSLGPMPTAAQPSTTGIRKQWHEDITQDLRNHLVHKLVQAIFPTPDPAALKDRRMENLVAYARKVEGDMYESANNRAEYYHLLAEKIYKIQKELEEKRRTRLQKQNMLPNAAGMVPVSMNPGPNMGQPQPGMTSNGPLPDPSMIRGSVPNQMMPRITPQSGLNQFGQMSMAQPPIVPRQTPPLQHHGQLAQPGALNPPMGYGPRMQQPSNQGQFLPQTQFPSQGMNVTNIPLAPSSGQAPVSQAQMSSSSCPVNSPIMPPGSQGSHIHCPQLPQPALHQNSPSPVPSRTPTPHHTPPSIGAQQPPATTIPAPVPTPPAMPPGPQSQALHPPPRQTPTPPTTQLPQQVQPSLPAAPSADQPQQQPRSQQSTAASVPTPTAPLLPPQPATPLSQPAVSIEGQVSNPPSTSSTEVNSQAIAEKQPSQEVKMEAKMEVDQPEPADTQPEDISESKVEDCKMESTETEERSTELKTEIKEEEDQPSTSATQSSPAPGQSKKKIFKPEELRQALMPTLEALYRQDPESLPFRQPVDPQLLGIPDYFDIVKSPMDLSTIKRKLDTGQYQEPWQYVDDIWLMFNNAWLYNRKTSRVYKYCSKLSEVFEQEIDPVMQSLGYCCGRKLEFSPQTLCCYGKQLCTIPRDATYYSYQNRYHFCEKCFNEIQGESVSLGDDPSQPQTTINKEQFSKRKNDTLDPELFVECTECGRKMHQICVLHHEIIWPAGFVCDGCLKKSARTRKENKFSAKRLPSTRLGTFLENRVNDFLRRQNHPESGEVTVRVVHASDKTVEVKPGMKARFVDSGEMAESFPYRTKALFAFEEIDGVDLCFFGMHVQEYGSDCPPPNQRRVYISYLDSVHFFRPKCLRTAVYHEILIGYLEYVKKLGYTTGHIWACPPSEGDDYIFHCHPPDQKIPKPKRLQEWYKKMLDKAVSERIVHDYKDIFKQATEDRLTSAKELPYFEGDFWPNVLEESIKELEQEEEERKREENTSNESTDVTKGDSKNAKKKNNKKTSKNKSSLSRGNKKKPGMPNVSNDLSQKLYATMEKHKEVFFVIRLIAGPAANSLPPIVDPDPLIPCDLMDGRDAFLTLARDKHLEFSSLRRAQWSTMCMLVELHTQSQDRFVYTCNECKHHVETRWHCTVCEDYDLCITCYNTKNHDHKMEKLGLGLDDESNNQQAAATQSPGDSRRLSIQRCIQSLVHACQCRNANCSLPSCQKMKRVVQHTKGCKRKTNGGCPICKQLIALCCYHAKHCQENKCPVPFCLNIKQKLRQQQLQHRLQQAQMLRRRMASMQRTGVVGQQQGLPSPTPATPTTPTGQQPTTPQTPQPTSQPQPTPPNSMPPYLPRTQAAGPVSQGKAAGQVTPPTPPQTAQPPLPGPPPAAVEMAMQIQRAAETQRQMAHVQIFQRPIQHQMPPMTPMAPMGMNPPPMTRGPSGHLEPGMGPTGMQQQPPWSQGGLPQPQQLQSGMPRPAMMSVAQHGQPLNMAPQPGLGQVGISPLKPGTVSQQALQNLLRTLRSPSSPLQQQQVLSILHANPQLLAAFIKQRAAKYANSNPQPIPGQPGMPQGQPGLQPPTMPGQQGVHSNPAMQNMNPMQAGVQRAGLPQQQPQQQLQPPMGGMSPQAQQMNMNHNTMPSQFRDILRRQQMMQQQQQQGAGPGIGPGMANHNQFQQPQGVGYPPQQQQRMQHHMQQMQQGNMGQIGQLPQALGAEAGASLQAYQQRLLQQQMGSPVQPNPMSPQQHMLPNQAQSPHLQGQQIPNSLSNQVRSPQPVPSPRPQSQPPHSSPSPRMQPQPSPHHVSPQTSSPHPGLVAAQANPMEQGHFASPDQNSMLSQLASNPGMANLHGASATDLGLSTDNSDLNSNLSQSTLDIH
UniProt P28033: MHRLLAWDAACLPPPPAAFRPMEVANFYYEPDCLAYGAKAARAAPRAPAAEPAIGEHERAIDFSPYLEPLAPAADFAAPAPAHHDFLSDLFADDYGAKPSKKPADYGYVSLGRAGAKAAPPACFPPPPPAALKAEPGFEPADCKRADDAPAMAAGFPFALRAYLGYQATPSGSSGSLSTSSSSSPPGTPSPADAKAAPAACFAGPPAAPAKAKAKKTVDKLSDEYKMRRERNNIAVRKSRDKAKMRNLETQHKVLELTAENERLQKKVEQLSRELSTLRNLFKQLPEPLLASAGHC

Columns and labels:
[1] = biological target: E1A binding protein p300 (p300), in mouse lung samples (mouse (endogenous in mouse lung)) (UniProt B2RWS6); assay: co-IP; BLM-treated mouse lung samples; which protein was precipitated is not told in the text shown
[2] = biological target: p300, transfected construct in RLE-6TN cells (UniProt Q09472); assay: co-IP; RLE-6TN cells transfected with the indicated constructs; immunoprecipitation with FLAG or HA antibodies

binding [1]	binding [2]	Molecule
binds	–	CCAAT/enhancer-binding protein beta (C/EBPβ), in mouse lung samples (from UniProt P28033 1-296)
–	binds	ubiquitin C-terminal hydrolase L3 (UCHL3), transfected construct in RLE-6TN cells (enzyme, UniProt P15374 1-230) MEGQRWLPLEANPEVTNQFLKQLGLHPNWQFVDVYGMDPELLSMVPRPVCAVLLLFPITEKYEVFRTEEEEKIKSQGQDVTSSVYFMKQTISNACGTIGLIHAIANNKDKMHFESGSTLKKFLEESVSMSPEERARYLENYDAIRVTHETSAHEGQTEAPSIDEKVDLHFIALVHVDGHLYELDGRKPFPINHGETSDETLLEDAIEVCKKFMERDPDELRFNAIALSAA
